# Out of some 580,000 compounds screened, about 6,100 (1.1%) were called active. Inconclusive results, whose numbers are uncertain, are shown with a selection of clear calls. Calls come from the whole dose curve; as a rule, active = well fitted inhibition curve with a large enough effect; inconclusive = small, poorly fitted or top-dose-only effect, or another doubt; inactive = no such curve, though single readings can be large or run the other way. Where the call is inconclusive, the potency comes from a doubtful curve fit.
# By UniProt entry, the sequences of proteins in these tests, tags left out.
# UniProt P18054, whole entry, looked up: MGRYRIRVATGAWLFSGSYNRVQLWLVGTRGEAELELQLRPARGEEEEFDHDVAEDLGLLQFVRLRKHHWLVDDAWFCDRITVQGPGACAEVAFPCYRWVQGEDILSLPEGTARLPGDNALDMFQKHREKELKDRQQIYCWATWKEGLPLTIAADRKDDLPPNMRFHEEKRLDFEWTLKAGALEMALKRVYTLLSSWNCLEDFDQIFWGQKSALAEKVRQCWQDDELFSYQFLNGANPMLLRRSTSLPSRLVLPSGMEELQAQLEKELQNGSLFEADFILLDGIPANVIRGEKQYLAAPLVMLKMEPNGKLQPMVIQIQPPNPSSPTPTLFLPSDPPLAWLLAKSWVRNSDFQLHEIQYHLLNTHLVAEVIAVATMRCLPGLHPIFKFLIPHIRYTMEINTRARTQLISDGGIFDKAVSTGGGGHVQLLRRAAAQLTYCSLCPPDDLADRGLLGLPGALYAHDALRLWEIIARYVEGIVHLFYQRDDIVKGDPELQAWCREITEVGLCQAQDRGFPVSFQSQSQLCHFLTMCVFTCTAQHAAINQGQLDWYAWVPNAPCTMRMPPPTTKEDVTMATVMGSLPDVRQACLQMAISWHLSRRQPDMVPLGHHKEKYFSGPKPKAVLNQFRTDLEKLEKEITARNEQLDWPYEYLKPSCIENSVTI
# Target: Polyunsaturated fatty acid lipoxygenase ALOX12 (Homo sapiens) (UniProt P18054)
# Test: Primary qHTS assay for inhibitors of human arachidonate 12S-lipoxygenase (ALOX12): Round 2
# Details: purified 12hLO, xylenol orange hydroperoxide absorbance; activity change, negative = inhibition: at 108 µM (top of the series) unless noted
# Summary of the method: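 Purified human 12hLO (150 nM final) in 25 mM Hepes, 0.01% Triton X-100, pH 7.0 was preincubated 15 min at room temperature with compound. Then 40 uM arachidonic acid was added, 30 min. Hydroperoxide was read by Fe-XO absorbance ratio 573/405 nm.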
# % is set by controls: 0 for no effect and ±100 for the full control effect; potency is the fitted concentration of half-maximal effect.
SMILES,Potency,"activity change, negative = inhibition"
Cc1ncc(C[n+]2csc(CCOC(=O)CC3C4CC5CC(C4)CC3C5)c2C)c(N)n1 (stereo unspecified),"inconclusive: 3.55 µM [inhibitor, full curve, poor fit]",
O=C(N/N=C/c1cccc2ccccc12)c1ccccc1Cl,"inconclusive: 31.6 µM [inhibitor, single point]",
CCOc1ccc(C(=S)NC2CCCCC2)cc1OCC,active: 35.5 µM,
CCCCNC(=O)c1cnc(Cc2c[nH]c3ccccc23)c(I)c1,active: 39.8 µM,
Cc1cccc(CNC(=O)c2sc(=O)n(Cc3ccc(S(C)(=O)=O)cc3)c2C)c1,,inactive: 10.8%
COc1ccc(-c2noc(-c3cccn3CC(=O)Nc3ccc(C)cc3)n2)cc1F,"inconclusive: 2.24 µM [inhibitor, full curve, poor fit]",
Cc1nc(-c2c3n(c(=O)n(CC(=O)Nc4cccc(Cl)c4)c2=O)CCCCC3)no1,"inconclusive: 31.6 µM [inhibitor, full curve]",
O=C(c1ccccc1F)N1CCN(C(=O)c2nnn3c2COC(c2ccc(Cl)cc2)C3)CC1 (stereo unspecified),,inactive: 15.4%
Cc1cccc(CN2CCN(Cc3nc(-c4ccco4)oc3C)C(C)C2=O)c1 (stereo unspecified),"inconclusive: 3.55 µM [inhibitor, full curve]",
O=C(COC(=O)C1CC2CCCC(C1)C2=O)Nc1nc(-c2ccc(F)c(F)c2)cs1 (stereo unspecified),,inactive: -10.4%
CCOc1cc(-c2noc(-c3ncn4c3COC(c3ccc(F)cc3)C4)n2)ccc1OC (stereo unspecified),,inactive: -0.107%
O=[N+]([O-])c1ccccc1NCc1c(O)ccc2ccccc12,"inconclusive: 0.447 µM [inhibitor, full curve, poor fit]",
CCS(=O)(=O)c1ccc2c(c1)N(S(=O)(=O)c1ccc(C)cc1)CC(C(=O)O)O2 (stereo unspecified),"inconclusive: 44.7 µM [inhibitor, partial curve, poor fit]",
CNC(=O)c1c(O)c2cccc3c2n(c1=O)CC3,"inconclusive: 5.01 µM [inhibitor, full curve, poor fit]",
O=C(COC(=O)C1C2CCC(C2)C1C(=O)OCC(=O)c1ccc(OC(=O)c2ccco2)cc1)c1ccc(OC(=O)c2ccco2)cc1 (stereo unspecified),,inactive: 12.9%
CCc1cccc(C)c1NS(=O)(=O)c1cc2[nH]c(=O)c(=O)[nH]c2cc1C,"inconclusive: 141 µM [inhibitor, partial curve, poor fit]",
O=C(CSc1nnc(Cn2c(=O)sc3ccccc32)n1CCc1ccccc1)N1CCCC1,"inconclusive: 56.2 µM [inhibitor, partial curve, poor fit]",
Cc1ccc(-n2c(C3CCN(C(=O)c4ccoc4)CC3)n[nH]c2=O)cc1,,inactive: 54.3%
O=C(CN1C(=O)S/C(=C\c2cccc(Cl)c2)C1=O)NC1C=CS(=O)(=O)C1 (stereo unspecified),,inactive: -20.9%
CCN(CC(=O)Nc1ccc(OC)cc1)C(=O)c1ccc2c(c1)NC(=O)C(C)S2 (stereo unspecified),"inconclusive: 44.7 µM [inhibitor, partial curve, poor fit]",
COc1ccc(-c2coc3c(C(=O)NCc4ccc(OC)c(OC)c4)cccc23)c(C)c1,"inconclusive: 56.2 µM [inhibitor, partial curve, poor fit]",
CCOC(=O)c1cc(-c2ccc(N)cc2)sc1N,"inconclusive: 28.2 µM [inhibitor, partial curve]",

SMILES,Potency,"activity change, negative = inhibition"
Cn1c(=O)c2c(nc(N3CCCCC3)n2CC(O)COc2ccccc2)n(C)c1=O (stereo unspecified),,inactive: 0%
CCOc1cc(N2CCOCC2)c(OCC)cc1NC(=O)COc1ncnc2ccc(Br)cc12,"inconclusive: 50.1 µM [inhibitor, partial curve, poor fit]",
COc1ccc(CN2C(=O)C(n3c(C)ccc3C)c3cccc(F)c32)cc1 (stereo unspecified),"inconclusive: 50.1 µM [inhibitor, partial curve, poor fit]",
O=C(O)C1CC1(c1ccccc1)c1ccccc1 (stereo unspecified),,inactive: -11.9%
Cn1cccc1Cc1nnc(SCC(=O)N2CCCCCC2)n1-c1ccc(F)cc1,"inconclusive: 3.55 µM [inhibitor, full curve, poor fit]",
COc1ccc(CNC(=O)c2cccc3c(-c4cccnc4)coc23)cc1OC,"inconclusive: 141 µM [inhibitor, single point]",
Cc1ccc(CN(C(=O)COc2ccc([N+](=O)[O-])cc2)c2ccccn2)cc1,,inactive: -21.4%
COc1ccccc1Cc1c(-c2cccc(Br)c2)nc2ccc(C)cn12,"inconclusive: 100 µM [inhibitor, partial curve, poor fit]",
S=C(NCc1ccccc1)Nc1cccc2ccccc12,active: 44.7 µM,
CCN(CC)CCCNC(=O)c1cn(C)c2ccc(S(=O)(=O)N(C)C3CCCCC3)cc2c1=O,"inconclusive: 44.7 µM [inhibitor, partial curve, poor fit]",
O=C1CC2(CCN(Cc3cccc4ccccc34)CC2)Oc2ccccc2N1,,inactive: 2.85%
CN1C(CC(=O)c2ccccc2)CCCC1CC(O)c1ccccc1 (stereo unspecified),,inactive: -5.2%
O=C(C[C@H]1C[C@H](C(=O)N2CCOCC2)[C@@]2(CCC3CCCC3)c3[nH]c4ccc(Cl)cc4c3CCN2C1=O)NCCc1ccccn1,,inactive: -27.2%
COc1ccc(OC)c(NC(=O)Nc2ccc(O)c3ccccc23)c1,"inconclusive: 15.8 µM [inhibitor, full curve, poor fit]",
CN1CCN(C(=O)c2ccc(-c3ccccc3)cc2)CC1,"inconclusive: 31.6 µM [inhibitor, partial curve, poor fit]",
Cc1ccc2c(=O)cc(C(=O)Nc3nc4ccc(Cl)cc4s3)oc2c1C,"inconclusive: 126 µM [inhibitor, partial curve, poor fit]",
CCOC(=O)c1[nH]c(C=O)c(C(C)=O)c1C,"inconclusive: 50.1 µM [inhibitor, partial curve, poor fit]",
CCOc1ccccc1-n1c(=S)sc2c(=O)n(-c3ccc(C)cc3)c(=S)[nH]c21,"inconclusive: 11.2 µM [inhibitor, partial curve]",
COc1cc(NC(=O)Nc2cc3c(cc2N2CCCC2)n(C)c(=O)n3C)cc(OC)c1,"inconclusive: 126 µM [inhibitor, partial curve, poor fit]",
N#CCC(=O)Nc1ccc(C(=O)OCC(=O)c2ccc3c(c2)OCCO3)cc1,,inactive: -2.83%
O=C(Cn1nnc2sc(-c3ccccc3)cc2c1=O)Nc1cccc(Cl)c1,"inconclusive: 56.2 µM [inhibitor, partial curve, poor fit]",
Cc1cc(NC(=O)COC(=O)c2csc(NCc3ccccc3)n2)ccc1N1CCCC1,"inconclusive: 35.5 µM [inhibitor, partial curve, poor fit]",

SMILES,Potency,"activity change, negative = inhibition"
CCOC(=O)c1ccccc1-n1c(C)cc(C2N=C(N)Nc3nc4ccccc4n32)c1C (stereo unspecified),"inconclusive: 44.7 µM [inhibitor, partial curve, poor fit]",
CN(C(=O)C1CCC(=O)N(CCc2ccc(Cl)cc2)C1)C1CCOCC1 (stereo unspecified),,inactive: -17.8%
O=C(NC(=S)Nn1cnnc1)c1ccccc1Cl,"inconclusive: 39.8 µM [inhibitor, partial curve]",
FC(F)(F)c1ccccc1-c1nccc(N2CCNCC2)n1,"inconclusive: 56.2 µM [inhibitor, partial curve, poor fit]",
CC1CC(c2ccccc2)=Nc2ccccc2N1 (stereo unspecified),"inconclusive: 44.7 µM [inhibitor, partial curve, poor fit]",
O=C(O)CCC(=O)N1CCN(c2ncccc2C(F)(F)F)CC1,,inactive: 138%
CCOC(=O)c1cc2c(ccn2-c2ccc(F)cc2)n1CC(=O)N1CCN(C(=O)c2ccco2)CC1,,inactive: 39.3% [at 57.4 µM]
CCN(CC(=O)Nc1ccc(NC(C)=O)cc1)C(=O)CCCSc1nc2ccccc2[nH]1,"inconclusive: 56.2 µM [inhibitor, partial curve, poor fit]",
COc1ccc(CNC(=O)c2cnc3ccccc3n2)cc1,"inconclusive: 2.51 µM [inhibitor, full curve, poor fit]",
COc1ccccc1NC(=O)CSc1nnc(-c2ccc(NC(C)=O)cc2)n1C,"inconclusive: 100 µM [inhibitor, single point]",
COc1ccc(NC2=NCC(=O)N2c2ccccc2F)cc1,"inconclusive: 112 µM [inhibitor, single point]",
C[C@]12C=C[C@H](O)CC1=CCC1C2CC[C@@]2(C)C1CCC21OCCO1 (stereo partly specified),"inconclusive: 56.2 µM [inhibitor, partial curve, poor fit]",
O=S(=O)(c1cc(Br)ccc1Br)N1CCC(c2noc3ccccc23)CC1,"inconclusive: 14.1 µM [inhibitor, full curve, poor fit]",
O=C(c1c(F)cccc1F)N1CCC2(CC1)N=C(c1ccc(Cl)cc1)NO2,,inactive: 2.21%
CC(C)n1c(N2CCN(CC(=O)NCc3cccs3)CC2)nc2ccccc21,,inactive: 0.605%
O=C(O)C1Oc2cc3ccccc3cc2O1,,inactive: 0%
CN(Cc1cccc(C#N)c1)C(=O)c1cnc2ccccc2n1,,inactive: 11.5%
Cc1ccc(CNc2cnn(C34CC5CC(CC(C5)C3)C4)c(=O)c2Cl)cc1,,inactive: 8.65%
O=C(OCC(=O)c1ccc(Cl)s1)c1ccc2ccccc2n1,"inconclusive: 44.7 µM [inhibitor, partial curve, poor fit]",
O=C(c1ccc2c(c1)N(Cc1cccc(F)c1)C(=O)c1ccccc1S2)N1CCOCC1,"inconclusive: 56.2 µM [inhibitor, partial curve, poor fit]",
COc1ccc(/C=C/C(=O)Nc2ccc3nc4c(c(Nc5ccccc5OC)c3c2)CCCC4)cc1,"inconclusive: 79.4 µM [inhibitor, partial curve, poor fit]",
O=C(N/N=C/c1ccsc1)c1cccc(C(F)(F)F)c1,"inconclusive: 89.1 µM [inhibitor, partial curve, poor fit]",

# Quoted at random: 3 compounds from above.
SMILES,Potency,"activity change, negative = inhibition"
O=C(N/N=C/c1ccsc1)c1cccc(C(F)(F)F)c1,"inconclusive: 89.1 µM [inhibitor, partial curve, poor fit]",
CCOC(=O)c1cc2c(ccn2-c2ccc(F)cc2)n1CC(=O)N1CCN(C(=O)c2ccco2)CC1,,inactive: 39.3% [at 57.4 µM]
CC1CC(c2ccccc2)=Nc2ccccc2N1 (stereo unspecified),"inconclusive: 44.7 µM [inhibitor, partial curve, poor fit]",

# Record cards, as listed above:
# COc1ccccc1Cc1c(-c2cccc(Br)c2)nc2ccc(C)cn12 in the list: Potency: inconclusive: 100 µM [inhibitor, partial curve, poor fit]
# O=C(COC(=O)C1CC2CCCC(C1)C2=O)Nc1nc(-c2ccc(F)c(F)c2)cs1 (stereo unspecified) in the list: activity change, negative = inhibition: inactive: -10.4%

# From PubChem BioAssay AID1671190 (National Center for Advancing Translational Sciences (NCATS), 2021)
